Amino acid sequences for entries named in this document (tags omitted). A change or cut given only in a name is not applied to a line headed by its entry.
UniProt P49759: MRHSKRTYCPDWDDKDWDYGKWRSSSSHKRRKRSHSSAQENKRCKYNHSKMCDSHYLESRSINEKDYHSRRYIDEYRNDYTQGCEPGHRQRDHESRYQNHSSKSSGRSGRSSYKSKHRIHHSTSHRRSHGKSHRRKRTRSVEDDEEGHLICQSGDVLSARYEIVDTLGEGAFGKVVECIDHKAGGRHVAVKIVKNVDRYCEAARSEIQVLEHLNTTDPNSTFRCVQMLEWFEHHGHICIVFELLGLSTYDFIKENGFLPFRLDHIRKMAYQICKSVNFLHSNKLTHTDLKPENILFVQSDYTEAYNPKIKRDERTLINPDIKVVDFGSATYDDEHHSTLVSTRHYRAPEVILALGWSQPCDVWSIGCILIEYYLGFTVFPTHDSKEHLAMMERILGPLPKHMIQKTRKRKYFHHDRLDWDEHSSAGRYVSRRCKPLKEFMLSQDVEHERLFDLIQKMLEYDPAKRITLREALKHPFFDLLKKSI
UniProt P48147: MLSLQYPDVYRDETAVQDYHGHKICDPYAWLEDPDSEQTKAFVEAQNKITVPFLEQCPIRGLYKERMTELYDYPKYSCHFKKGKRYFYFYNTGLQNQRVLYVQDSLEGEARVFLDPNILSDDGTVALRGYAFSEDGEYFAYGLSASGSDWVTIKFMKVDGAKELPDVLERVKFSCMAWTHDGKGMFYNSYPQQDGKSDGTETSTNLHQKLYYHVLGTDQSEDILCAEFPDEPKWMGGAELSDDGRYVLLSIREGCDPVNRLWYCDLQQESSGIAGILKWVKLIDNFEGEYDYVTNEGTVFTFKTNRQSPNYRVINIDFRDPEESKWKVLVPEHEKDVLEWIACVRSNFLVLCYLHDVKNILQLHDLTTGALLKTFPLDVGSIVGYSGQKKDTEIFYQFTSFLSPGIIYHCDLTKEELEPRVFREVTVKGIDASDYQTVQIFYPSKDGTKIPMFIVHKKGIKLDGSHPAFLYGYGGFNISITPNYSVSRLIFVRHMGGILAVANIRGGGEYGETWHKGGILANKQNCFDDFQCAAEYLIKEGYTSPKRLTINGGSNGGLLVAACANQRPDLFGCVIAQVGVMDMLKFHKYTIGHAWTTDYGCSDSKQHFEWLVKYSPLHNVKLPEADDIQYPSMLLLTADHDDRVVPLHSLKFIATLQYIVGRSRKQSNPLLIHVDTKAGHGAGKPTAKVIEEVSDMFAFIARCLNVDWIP
UniProt P49069: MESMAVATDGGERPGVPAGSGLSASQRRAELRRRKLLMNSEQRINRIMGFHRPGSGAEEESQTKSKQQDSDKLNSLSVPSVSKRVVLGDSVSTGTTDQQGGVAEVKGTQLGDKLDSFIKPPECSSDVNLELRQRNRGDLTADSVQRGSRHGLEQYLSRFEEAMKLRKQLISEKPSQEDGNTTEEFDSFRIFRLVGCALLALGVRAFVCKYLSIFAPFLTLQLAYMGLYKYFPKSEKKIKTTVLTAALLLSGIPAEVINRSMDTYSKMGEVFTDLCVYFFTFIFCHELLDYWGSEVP
UniProt P49458: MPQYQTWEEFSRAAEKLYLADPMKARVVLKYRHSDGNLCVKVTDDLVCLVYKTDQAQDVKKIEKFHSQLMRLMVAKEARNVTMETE
UniProt P50552: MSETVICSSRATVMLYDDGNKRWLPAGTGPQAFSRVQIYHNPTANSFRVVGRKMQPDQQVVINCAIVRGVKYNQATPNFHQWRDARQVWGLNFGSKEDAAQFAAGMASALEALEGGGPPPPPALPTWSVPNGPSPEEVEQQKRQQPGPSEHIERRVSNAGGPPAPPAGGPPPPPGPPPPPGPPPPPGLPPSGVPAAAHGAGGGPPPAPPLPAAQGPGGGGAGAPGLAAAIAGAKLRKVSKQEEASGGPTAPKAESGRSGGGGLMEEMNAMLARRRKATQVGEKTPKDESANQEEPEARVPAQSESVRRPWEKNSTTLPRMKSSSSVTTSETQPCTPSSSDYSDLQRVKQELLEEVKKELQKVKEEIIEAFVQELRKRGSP
UniProt P49327, whole entry, looked up: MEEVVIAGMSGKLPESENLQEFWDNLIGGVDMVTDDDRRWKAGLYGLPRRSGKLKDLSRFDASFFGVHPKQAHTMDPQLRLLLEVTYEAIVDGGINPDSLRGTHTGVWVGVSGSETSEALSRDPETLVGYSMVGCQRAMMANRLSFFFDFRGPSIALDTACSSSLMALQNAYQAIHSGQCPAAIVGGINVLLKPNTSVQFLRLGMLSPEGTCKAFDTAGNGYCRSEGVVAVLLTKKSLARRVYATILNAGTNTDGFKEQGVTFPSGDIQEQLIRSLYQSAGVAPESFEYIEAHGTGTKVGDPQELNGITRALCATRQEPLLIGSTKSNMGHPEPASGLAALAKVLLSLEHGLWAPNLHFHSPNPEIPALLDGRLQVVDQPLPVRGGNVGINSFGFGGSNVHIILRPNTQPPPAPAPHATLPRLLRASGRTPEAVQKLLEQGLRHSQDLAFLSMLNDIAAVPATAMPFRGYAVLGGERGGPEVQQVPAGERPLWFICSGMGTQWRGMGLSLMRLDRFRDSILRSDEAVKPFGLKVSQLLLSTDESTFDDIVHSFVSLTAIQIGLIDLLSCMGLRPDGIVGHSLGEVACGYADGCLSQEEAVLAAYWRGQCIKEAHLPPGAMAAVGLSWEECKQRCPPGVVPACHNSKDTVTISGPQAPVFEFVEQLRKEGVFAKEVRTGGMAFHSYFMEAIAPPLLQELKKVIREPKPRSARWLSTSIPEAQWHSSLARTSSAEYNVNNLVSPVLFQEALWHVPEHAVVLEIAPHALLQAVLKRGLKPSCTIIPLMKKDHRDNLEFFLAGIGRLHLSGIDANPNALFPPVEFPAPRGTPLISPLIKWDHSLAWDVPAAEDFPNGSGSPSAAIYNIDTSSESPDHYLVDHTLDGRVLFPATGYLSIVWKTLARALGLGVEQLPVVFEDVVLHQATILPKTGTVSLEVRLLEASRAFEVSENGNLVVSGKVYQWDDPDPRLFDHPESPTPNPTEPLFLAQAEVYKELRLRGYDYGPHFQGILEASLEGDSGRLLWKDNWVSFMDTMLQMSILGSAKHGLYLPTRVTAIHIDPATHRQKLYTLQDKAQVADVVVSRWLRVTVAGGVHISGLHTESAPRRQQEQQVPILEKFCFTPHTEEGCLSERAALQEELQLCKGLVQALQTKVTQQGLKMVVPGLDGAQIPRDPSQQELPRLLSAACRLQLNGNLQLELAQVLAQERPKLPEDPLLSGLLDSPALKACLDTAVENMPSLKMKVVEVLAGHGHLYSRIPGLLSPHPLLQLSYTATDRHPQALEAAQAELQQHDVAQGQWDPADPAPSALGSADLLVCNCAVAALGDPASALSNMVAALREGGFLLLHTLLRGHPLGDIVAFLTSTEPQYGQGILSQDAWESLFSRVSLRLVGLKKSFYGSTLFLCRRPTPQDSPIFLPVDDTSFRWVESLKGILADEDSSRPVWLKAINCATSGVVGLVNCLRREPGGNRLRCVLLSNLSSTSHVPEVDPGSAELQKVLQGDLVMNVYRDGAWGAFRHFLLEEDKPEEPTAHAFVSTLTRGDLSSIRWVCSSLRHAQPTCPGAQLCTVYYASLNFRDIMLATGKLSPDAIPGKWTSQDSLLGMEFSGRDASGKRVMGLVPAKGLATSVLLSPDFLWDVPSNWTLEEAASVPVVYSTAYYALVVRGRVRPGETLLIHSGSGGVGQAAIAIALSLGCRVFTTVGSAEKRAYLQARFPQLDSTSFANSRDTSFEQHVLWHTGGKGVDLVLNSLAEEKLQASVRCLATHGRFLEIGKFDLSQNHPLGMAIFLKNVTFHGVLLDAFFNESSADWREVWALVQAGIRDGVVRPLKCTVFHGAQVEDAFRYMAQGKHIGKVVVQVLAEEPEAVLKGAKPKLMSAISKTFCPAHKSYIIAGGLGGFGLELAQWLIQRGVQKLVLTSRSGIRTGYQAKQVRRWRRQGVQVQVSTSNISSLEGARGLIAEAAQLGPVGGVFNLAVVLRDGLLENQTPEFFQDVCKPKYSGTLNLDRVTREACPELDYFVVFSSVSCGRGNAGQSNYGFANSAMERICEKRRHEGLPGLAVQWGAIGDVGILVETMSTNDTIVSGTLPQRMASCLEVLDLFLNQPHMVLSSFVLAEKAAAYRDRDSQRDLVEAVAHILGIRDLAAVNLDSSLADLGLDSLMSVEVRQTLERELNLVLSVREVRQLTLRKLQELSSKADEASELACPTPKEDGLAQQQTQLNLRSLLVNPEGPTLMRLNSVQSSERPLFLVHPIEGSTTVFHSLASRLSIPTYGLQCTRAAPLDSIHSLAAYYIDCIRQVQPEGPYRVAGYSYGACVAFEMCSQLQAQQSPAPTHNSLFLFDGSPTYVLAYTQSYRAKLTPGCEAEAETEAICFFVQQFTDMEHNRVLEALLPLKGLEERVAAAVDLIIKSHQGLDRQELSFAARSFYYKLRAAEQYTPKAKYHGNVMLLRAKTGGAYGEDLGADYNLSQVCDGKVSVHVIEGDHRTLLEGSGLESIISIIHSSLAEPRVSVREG
UniProt P48163: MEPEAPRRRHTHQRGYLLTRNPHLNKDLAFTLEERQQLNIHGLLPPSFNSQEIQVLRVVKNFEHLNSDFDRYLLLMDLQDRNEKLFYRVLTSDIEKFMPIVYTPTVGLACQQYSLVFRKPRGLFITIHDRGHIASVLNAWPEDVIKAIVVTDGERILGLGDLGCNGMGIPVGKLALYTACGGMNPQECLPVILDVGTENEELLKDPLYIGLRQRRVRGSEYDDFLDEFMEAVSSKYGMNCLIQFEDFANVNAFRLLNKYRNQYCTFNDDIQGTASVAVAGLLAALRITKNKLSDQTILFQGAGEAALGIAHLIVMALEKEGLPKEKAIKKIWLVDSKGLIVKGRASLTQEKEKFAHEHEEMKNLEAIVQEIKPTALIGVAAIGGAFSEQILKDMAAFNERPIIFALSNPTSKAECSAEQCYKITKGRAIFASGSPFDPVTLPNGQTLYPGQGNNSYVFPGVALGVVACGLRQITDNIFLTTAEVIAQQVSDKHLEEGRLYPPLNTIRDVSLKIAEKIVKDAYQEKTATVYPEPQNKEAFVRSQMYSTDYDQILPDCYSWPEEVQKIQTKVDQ
UniProt P45880: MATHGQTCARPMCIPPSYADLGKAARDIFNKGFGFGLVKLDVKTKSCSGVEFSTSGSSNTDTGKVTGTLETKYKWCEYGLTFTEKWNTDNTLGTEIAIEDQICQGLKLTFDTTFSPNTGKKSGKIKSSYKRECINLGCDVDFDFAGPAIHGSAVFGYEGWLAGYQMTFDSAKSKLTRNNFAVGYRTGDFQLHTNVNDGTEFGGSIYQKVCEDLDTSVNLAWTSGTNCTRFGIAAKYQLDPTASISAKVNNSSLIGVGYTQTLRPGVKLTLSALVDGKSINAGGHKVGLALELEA
UniProt P49585: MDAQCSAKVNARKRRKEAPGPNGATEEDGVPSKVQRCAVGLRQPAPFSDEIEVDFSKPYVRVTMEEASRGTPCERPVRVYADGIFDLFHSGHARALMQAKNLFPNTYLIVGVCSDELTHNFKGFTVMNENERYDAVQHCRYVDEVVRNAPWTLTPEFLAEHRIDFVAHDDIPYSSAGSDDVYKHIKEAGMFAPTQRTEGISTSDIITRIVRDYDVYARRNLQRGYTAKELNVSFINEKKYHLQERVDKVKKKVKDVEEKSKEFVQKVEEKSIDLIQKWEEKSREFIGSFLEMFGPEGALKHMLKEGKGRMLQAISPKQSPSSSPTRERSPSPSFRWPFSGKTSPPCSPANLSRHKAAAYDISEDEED
UniProt P49821, whole entry, looked up: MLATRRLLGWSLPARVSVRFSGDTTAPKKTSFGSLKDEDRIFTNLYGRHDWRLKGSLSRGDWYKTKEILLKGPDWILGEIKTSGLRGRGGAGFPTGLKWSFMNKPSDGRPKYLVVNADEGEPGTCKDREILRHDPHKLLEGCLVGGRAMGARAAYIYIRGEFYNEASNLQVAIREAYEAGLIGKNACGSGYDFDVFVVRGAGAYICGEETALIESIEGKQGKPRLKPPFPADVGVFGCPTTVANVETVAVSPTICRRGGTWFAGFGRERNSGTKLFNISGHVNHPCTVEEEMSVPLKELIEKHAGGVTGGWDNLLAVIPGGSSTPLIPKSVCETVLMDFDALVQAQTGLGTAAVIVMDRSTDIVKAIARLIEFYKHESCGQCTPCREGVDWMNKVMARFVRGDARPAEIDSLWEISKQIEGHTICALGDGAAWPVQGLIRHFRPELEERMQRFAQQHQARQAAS
UniProt P50213: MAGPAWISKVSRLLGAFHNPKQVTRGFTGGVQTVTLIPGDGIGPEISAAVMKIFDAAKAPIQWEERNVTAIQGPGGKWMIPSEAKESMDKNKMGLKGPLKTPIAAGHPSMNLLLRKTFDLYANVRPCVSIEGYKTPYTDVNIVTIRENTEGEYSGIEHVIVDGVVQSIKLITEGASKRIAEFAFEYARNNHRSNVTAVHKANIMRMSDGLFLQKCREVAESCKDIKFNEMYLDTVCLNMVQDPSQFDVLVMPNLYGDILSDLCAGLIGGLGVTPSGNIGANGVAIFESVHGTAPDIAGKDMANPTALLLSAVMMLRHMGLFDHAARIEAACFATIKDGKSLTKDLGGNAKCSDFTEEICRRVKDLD

The entries are a selection whose mix differs from that of the whole data set.
These targets were tested with COC(=O)C#Cc1ccccc1 [methyl 3-phenylpropiolate] (assay: log2 ratio of iodoacetamide-alkyne labeling of the cysteine site, DMSO over compound (competition); higher = stronger covalent engagement of the cysteine by the compound, active = 1 or more). Settings: 500 µM; treatment time 1 h; system: HEK293T cell lysate.
In short: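 HEK293T lysate (2 mg/mL) was incubated with electrophile (500 µM) or vehicle for 1 h at ambient temperature and then with iodoacetamide alkyne for 1 h. Labelled proteins were clicked to sCIP-TMT reagents, pooled, digested, enriched on streptavidin and measured by Orbitrap Eclipse LC-MS/MS with FAIMS, with FragPipe quantification. The per-cysteine log2 competition ratio is mean control-channel reporter intensity over mean compound-channel reporter intensity. Across three replicates with duplicate channels, cysteines quantified in only one replicate were excluded.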
In the case of CLK1 C200 (UniProt P49759), the “log2 ratio of iodoacetamide-alkyne labeling” value (shortened to “log2 ratio”) was inactive: -0.0452. PREP C532 (UniProt P48147) was tested, and the “log2 ratio” value was inactive: 0.134. With GMPS C4 (UniProt P49915) the “log2 ratio” value was inactive: 0.377. For CAMLG C123 (UniProt P49069), the “log2 ratio” value was inactive: 0.308. For SRP9 C48 (UniProt P49458), the “log2 ratio” value was inactive: -0.31. In the case of VASP C334 (UniProt P50552), the “log2 ratio” value was inactive: 0.404. PEX5 C11 (UniProt P50542) was tested, and the “log2 ratio” value was inactive: 0.204. For FASN C2359 (UniProt P49327), the “log2 ratio” value was inactive: 0.113. NAMPT C397 (UniProt P43490) was tested, and the “log2 ratio” value was inactive: 0.281. For ME1 C556 (UniProt P48163), the “log2 ratio” value was inactive: 0.22. For CCT3 C366 (UniProt P49368), the “log2 ratio” value was inactive: 0.0964. VDAC2 C76 (UniProt P45880) was tested, and the “log2 ratio” value was inactive: 0.138. In the case of PCYT1A C5 (UniProt P49585), the “log2 ratio” value was inactive: 0.879. For NDUFV1 C187 (UniProt P49821), the “log2 ratio” value was inactive: -0.109. For IDH3A C359 (UniProt P50213), the “log2 ratio” value was active: 1.05.

From the supplement of paper PMC11006884
